Source: PMC11211426
These are yes or no findings as the source states them, for the method shown. In cells and extracts the contact can be indirect.

Protein sequences, listed by entry. Tags and fused reporters are not part of them.
UniProt P0DTD2: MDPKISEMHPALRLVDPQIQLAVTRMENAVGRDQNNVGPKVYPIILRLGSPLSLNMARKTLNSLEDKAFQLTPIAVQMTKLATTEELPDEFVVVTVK
UniProt P08238: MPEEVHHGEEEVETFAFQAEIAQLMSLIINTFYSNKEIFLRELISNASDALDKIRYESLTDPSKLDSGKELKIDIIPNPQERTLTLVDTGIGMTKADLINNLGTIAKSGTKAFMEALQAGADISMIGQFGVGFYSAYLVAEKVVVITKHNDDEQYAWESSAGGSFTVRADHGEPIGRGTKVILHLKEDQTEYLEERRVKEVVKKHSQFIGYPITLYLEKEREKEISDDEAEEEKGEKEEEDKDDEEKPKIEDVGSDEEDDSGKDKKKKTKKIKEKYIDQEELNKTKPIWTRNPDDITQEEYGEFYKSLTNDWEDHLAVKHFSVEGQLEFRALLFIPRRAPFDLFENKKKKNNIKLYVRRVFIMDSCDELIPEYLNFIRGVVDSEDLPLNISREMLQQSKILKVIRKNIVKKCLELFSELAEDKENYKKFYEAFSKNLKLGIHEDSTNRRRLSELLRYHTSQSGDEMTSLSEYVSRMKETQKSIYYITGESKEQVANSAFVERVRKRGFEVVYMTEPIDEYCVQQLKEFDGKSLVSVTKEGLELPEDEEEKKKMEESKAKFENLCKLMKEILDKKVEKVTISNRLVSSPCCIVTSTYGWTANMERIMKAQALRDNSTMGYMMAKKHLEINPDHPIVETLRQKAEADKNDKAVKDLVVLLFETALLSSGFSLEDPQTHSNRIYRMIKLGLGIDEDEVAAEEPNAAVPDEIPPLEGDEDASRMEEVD

Molecular target: Flag-ORF9b (SARS-CoV-2 ORF9b, wild type) (SARS-CoV-2) (UniProt P0DTD2)
Assay: co-IP

HSP90β (from UniProt P08238 1-724)
binding: no binding
